From article PMC7819943, “Rice protein-binding microarrays: a tool to detect cis-acting elements near promoter regions in rice” come the findings set out here.

Sequences of proteins named here, by UniProt entry; tags and fusion partners are left off.
UniProt Q0JBA9, entry or part of it: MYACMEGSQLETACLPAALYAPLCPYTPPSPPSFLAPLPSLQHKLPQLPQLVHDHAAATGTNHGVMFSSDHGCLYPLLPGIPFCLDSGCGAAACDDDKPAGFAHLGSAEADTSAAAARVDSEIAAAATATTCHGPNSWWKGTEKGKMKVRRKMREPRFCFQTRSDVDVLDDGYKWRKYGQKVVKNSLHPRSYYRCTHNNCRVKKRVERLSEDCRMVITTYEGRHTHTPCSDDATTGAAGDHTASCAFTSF

This is one part of the list.

The target in the assay is OsWRKY34 (Oryza sativa, UniProt Q0JBA9 1-250). The experiment in a line: protein-binding microarray (RPBM); PBS, 2% BSA, 51.3 ng/ul salmon testes DNA, 50 uM zinc acetate, 200 nM TF, 25 C, 1 h; high values mean tight binding. Particulars: protein: recombinant; tags: N-terminal polyhistidine and DsRed monomer fusion (pET32a); label: CyDye5-dUTP incorporated in the synthesized complementary strand; 3' TTTTT single-stranded linker to array surface; dsDNA, one strand shown. In outline: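 Using Ni–NTA, transcription factors fused N-terminally to polyhistidine and DsRed were purified after expression in E. coli BL21-CodonPlus. These were incubated at 200 nM with a blocked, double-stranded custom Agilent array for 1 h at 25 °C in a buffer containing 50 µM zinc acetate, and the array was washed. The binding signal is per-feature fluorescence intensity (arbitrary units) on an Axon 4000B scanner.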
Take “GCTTTATGTAGATATCTCTATCACTCGCTCGCTGGACGACCGGAGTCACCTAGTGCAG”: the binding signal is 9470 fluorescence intensity (a.u.).
To “ACGACCACTTCCGCGACGAGATCACCGTAGCGTTACAGCACGGAGTCACCTAGTGCAG” belongs 8720 fluorescence intensity (a.u.).
Regarding “GCTCTTGTTTGTCCCGGCTTCCCTGTACGTATGTGTTTCCCGGAGTCACCTAGTGCAG”, the binding signal was 11500 fluorescence intensity (a.u.).
Consider “GCGTGCTAAACCCTTGTGATCCGTGTATTTAACCACCTTCCGGAGTCACCTAGTGCAG”, for which the binding signal was 11700 fluorescence intensity (a.u.).
To “TACCTACCTCGTGAAACTTTGCCGGCAGCATGAACTGATCCGGAGTCACCTAGTGCAG” belongs 8570 fluorescence intensity (a.u.); to “GTGTGACATGTGTAAAAGTTTTTTCTAGCAATTTTTTTTCCGGAGTCACCTAGTGCAG”, 9090 fluorescence intensity (a.u.); to “GTCCATTTTATTCCTTGAATTTCGCTCGAAGGTTATTTTTCGGAGTCACCTAGTGCAG”, 8640 fluorescence intensity (a.u.).
Take “AGCACCGATTTCTATAGCACGATTGGCCAGTTGCAACTTGCGGAGTCACCTAGTGCAG”: the binding signal was 8080 fluorescence intensity (a.u.).
To “AGTCAGCATAGACCCACGTGGGCCCCATATGTCAGGATGCCGGAGTCACCTAGTGCAG” belongs 8490 fluorescence intensity (a.u.); to “TCCTCTACGTGAATTCTACTCTTCTACTGCTTTACGTGTCCGGAGTCACCTAGTGCAG”, 8900 fluorescence intensity (a.u.).
To “CCGCGGCCCAGCTTACAGGCCCAGTTTTTTTCTCCAATACCGGAGTCACCTAGTGCAG” belongs 8520 fluorescence intensity (a.u.); to “GTACAATTAGTTTTTTCTTTATCGATATTTAATACTCTTTCGGAGTCACCTAGTGCAG”, 11700 fluorescence intensity (a.u.).
To “CTTGATTCCCTGCAGATTTCCATGCGCAGCCAGCATCTTGCGGAGTCACCTAGTGCAG” belongs 8230 fluorescence intensity (a.u.); to “GAGGGTCTCGGTGACGGCGGCGACGGAAGCGGGGTCGGGGCGGAGTCACCTAGTGCAG”, 8740 fluorescence intensity (a.u.).
In the case of “CAAAGGTTCTAATGTTTGACCTCATTCTTATCTAAAACGACGGAGTCACCTAGTGCAG”, the binding signal is 9440 fluorescence intensity (a.u.).
In the case of “CATCTGACGTCTTTGCTCCACCTGGTTCTTAATGACATTTCGGAGTCACCTAGTGCAG”, the binding signal was 9630 fluorescence intensity (a.u.).
With “TGATTCTTCAGCTGTGTTAGGATTATTTACCTTTCACATACGGAGTCACCTAGTGCAG”, the binding signal was 8690 fluorescence intensity (a.u.).
To “CTCTCATTTAGCTTTGCCTATTTGTGCCGCCATAGATCTACGGAGTCACCTAGTGCAG” belongs 8130 fluorescence intensity (a.u.); to “AGTAATTTGTTAATCCTCTGTTTCATTTTTGCTTAGGGATCGGAGTCACCTAGTGCAG”, 10200 fluorescence intensity (a.u.); to “CGCGCGCCGCGCGCGGCTGCGTTGGTTTTGGGGTTTTGGACGGAGTCACCTAGTGCAG”, 10600 fluorescence intensity (a.u.).
To “GTGCAAACTAGGTCCCTCAGCAGTTTTGACTCCGGTTTTACGGAGTCACCTAGTGCAG” belongs 9160 fluorescence intensity (a.u.).
To “GTTGAGCTACGCTCACTTTGCAATATACTACCTCTATTTCCGGAGTCACCTAGTGCAG” belongs 8290 fluorescence intensity (a.u.); to “ACGCCCGCTTGATCCGCCTGCTGCGCGCGCGCGAGTTTTTCGGAGTCACCTAGTGCAG”, 9160 fluorescence intensity (a.u.); to “GTATAGGGGAGAGGGTGGGCGGGTGATCACTGGGTGGGTGCGGAGTCACCTAGTGCAG”, 12200 fluorescence intensity (a.u.).
As to “GCTAATAAACTGGCCTGTAACCCGCGCATTTCGCACCCATCGGAGTCACCTAGTGCAG”, the binding signal was 8790 fluorescence intensity (a.u.).
To “AAACAGACCCTTAATATGCTATATTTGTCTCCAATAAAACCGGAGTCACCTAGTGCAG” belongs 8480 fluorescence intensity (a.u.); to “GCGCCGGCCTCGTCAATCCCATCGATCGATCTCGCCGTCGCGGAGTCACCTAGTGCAG”, 9780 fluorescence intensity (a.u.); to “AGTTACCTTTGTTTTTGTTCTAAGTTACTTCTATAATATACGGAGTCACCTAGTGCAG”, 9850 fluorescence intensity (a.u.).
To “CTGTTTGTCTATCTTCTTCTTGCCTTGGCAACAACAAAATCGGAGTCACCTAGTGCAG” belongs 8770 fluorescence intensity (a.u.).
To “TTTTCTTTTTCTACTGGAGTCGGACACGAGATGTTTTTTTCGGAGTCACCTAGTGCAG” belongs 8390 fluorescence intensity (a.u.).
Turning to “GAAGGCATTTTTATTGTCATCCTAGTATATCACATATCATCGGAGTCACCTAGTGCAG”, the binding signal is 8030 fluorescence intensity (a.u.).
Turning to “ATAGCTACCAAATTTCCTGTGTTGACCATTGACAATTTTCCGGAGTCACCTAGTGCAG”, the binding signal was 10100 fluorescence intensity (a.u.).
For the sequence “TGACTTGTTGTAGACGCGTGACGTGGCTTGGCTTATTTTTCGGAGTCACCTAGTGCAG”, the binding signal was 8900 fluorescence intensity (a.u.).
To “CAGTTTTGTTGTCATGCCATCTTATCATGTCCTTTAAATTCGGAGTCACCTAGTGCAG” belongs 14400 fluorescence intensity (a.u.); to “CATCTCCGTCCGCCGGCGTGCTCCTCGCCCCGCATCAGCTCGGAGTCACCTAGTGCAG”, 8750 fluorescence intensity (a.u.).
To “TCATCCCCTGATCGTCATCAGCATTCTCACCGTCGGCGCTCGGAGTCACCTAGTGCAG” belongs 8600 fluorescence intensity (a.u.).
To “CAGCCATCCATCCCACCCACACGTCACCACCCGCGCATCCCGGAGTCACCTAGTGCAG” belongs 8270 fluorescence intensity (a.u.); to “ACTAATTTGCGAGACGAATCTTTTAAGTATAATTTCTCTACGGAGTCACCTAGTGCAG”, 8700 fluorescence intensity (a.u.).
Take “ATCTCAAGCACTTGCATGTTTATTTTATCTCACTGGCTATCGGAGTCACCTAGTGCAG”: the binding signal is 9320 fluorescence intensity (a.u.).
To “ATTTTTTTTGTCAAACTGCCACGAAAGCGTCACGTTAATACGGAGTCACCTAGTGCAG” belongs 8240 fluorescence intensity (a.u.); to “CTTTCTTTCTTTCTTTCTTCTTTTTTTTCTTTTTTTTTTGCGGAGTCACCTAGTGCAG”, 8640 fluorescence intensity (a.u.).
In the case of “GCGTTTTGCGCCCTCGTGACTCGCCGCCGACACTCGCCAACGGAGTCACCTAGTGCAG”, the binding signal was 9360 fluorescence intensity (a.u.).
